Results as given in PubChem BioAssay AID504834 (National Center for Advancing Translational Sciences (NCATS), 2011).
Among all 320,000 compounds or so, about 22,000 (6.9%) were called active. Inconclusive means that the source gave no clear call. Such entries were picked first, then a sample of the others. Calls come from the whole dose curve; as a rule, active = well fitted inhibition curve with a large enough effect; inconclusive = small, poorly fitted or top-dose-only effect, or another doubt; inactive = no such curve, though single readings can be large or run the other way. Where the call is inconclusive, the potency comes from a doubtful curve fit.
Potency is the fitted concentration of half-maximal effect.

Assay: Primary qHTS for delayed death inhibitors of the malarial parasite plastid, 96 hour incubation
Conditions: P. falciparum luciferase reporter growth; series mostly up to 28.7 µM
Summary of the method: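 Parasite growth measured via integrated firefly luciferase reporter in P. falciparum. Infected erythrocytes at 2% hematocrit, 0.05% parasitemia final were treated 96 hours at 37 C under 5% CO2, and luminescence was read.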
With `COCC1CCN(C(=O)c2cc(COc3cncc(Cl)c3)on2)C1` (stereo unspecified) the Potency was inconclusive: 10.4 µM [inhibitor, single point]. For `CN(C)S(=O)(=O)Nc1ccc(C(=O)O)cc1`, the Potency was “inactive”. With `Cc1c(C(=O)NC(=S)N(Cc2ccccc2)c2ccccn2)cccc1[N+](=O)[O-]` the Potency was “inactive”. For `CC(=O)N1CCCN(Cc2cn(-c3ccc(C)cc3)nc2-c2cccc(C)c2)CC1`, the Potency was inconclusive: 11.7 µM [inhibitor, single point]. For `CN(CC1CCOCC1)C(=O)CC1C(=O)NCCN1CC(c1ccccc1)c1ccccc1` (stereo unspecified), the Potency was “inactive”. With `COc1ccc(C2SCCN2S(=O)(=O)c2ccc(F)cc2)cc1OC` (stereo unspecified) the Potency was inconclusive: 2.33 µM [inhibitor, full curve]. With `COCc1nnc(NS(=O)(=O)c2ccc(NC(C)=O)cc2)s1` the Potency was inconclusive: 18.5 µM [inhibitor, partial curve, poor fit]. For `CC[N+](CC)(CC)C/C=C/CN1CCCCC1`, the Potency was inconclusive: 14.7 µM [inhibitor, partial curve, poor fit]. In the case of `COc1ccc([C@H]2CC(=O)C=C(c3cccc(OC)c3OC)C2)cc1OC`, the Potency was inconclusive: 4.65 µM [inhibitor, single point]. In the case of `NNC(=O)c1nc(-c2ccccc2)n2c1CCCCC2`, the Potency was inconclusive: 11.7 µM [inhibitor, single point]. In the case of `Cc1cc(C)cc(N(C(=O)c2snc(C(N)=O)c2N)C(C(=O)NCC2CCCO2)c2ccc(C)o2)c1` (stereo unspecified), the Potency was inconclusive: 11.7 µM [inhibitor, single point]. In the case of `Cc1ccc(Nc2nc(N)c([N+](=O)[O-])c(N3CCCC(C)C3)n2)cc1C` (stereo unspecified), the Potency was inconclusive: 4.15 µM [inhibitor, partial curve, poor fit]. In the case of `CCC(=O)Nc1ccc(NCc2ccc(-c3ccccc3)cc2)cc1`, the Potency was inconclusive: 5.86 µM [inhibitor, single point]. In the case of `Cc1ccc(S(=O)(=O)NCc2ccc(C(=O)N(C)CCC#N)cc2)cc1`, the Potency was inconclusive: 0.37 µM [inhibitor, partial curve]. With `COc1cc(NC(=O)C2CCCN2S(=O)(=O)c2ccc3c(c2)CCC(=O)N3)cc(OC)c1` (stereo unspecified) the Potency was inconclusive: 11.7 µM [inhibitor, single point]. In the case of `O=[N+]([O-])c1nn(-c2ccccc2)n(O)c1=NCc1ccc2c(c1)OCO2`, the Potency was inconclusive: 18.5 µM [inhibitor, single point]. For `N#Cc1c(-c2ccco2)c2c([nH]c1=S)CCCC2`, the Potency was active: 10.4 µM. With `O=C(NCc1ccc(F)cc1)c1cc2ccccc2o1` the Potency was “inactive”. For `CC(C)(C)C(=O)Nc1cccc(C(=O)c2cccc(NC(=O)C(C)(C)C)c2)c1`, the Potency was inconclusive: 16.5 µM [inhibitor, single point]. With `CCO[C@@H]1OC(C(N)=O)=C[C@H](c2ccccc2)[C@H]1CCCO` the Potency was inconclusive: 18.5 µM [inhibitor, single point]. For `CCN(CC)CCCNC(=O)c1cn(C)c2ccc(S(=O)(=O)N(C)C3CCCCC3)cc2c1=O`, the Potency was inconclusive: 16.5 µM [inhibitor, single point]. In the case of `O=C(C1CCC(=O)N(C2CC2)C1)N1CCC(Oc2cccc(C(F)(F)F)c2)CC1` (stereo unspecified), the Potency was “inactive”. For `Cc1cccc(OCC(=O)NNC(=O)C2CCCCC2C(=O)O)c1` (stereo unspecified), the Potency was “inactive”. In the case of `S=C(NCc1ccccc1)Nc1cccc2ccccc12`, the Potency was inconclusive: 18.5 µM [inhibitor, single point]. In the case of `Cc1ccc(C)c(SCC(=O)NC2CCS(=O)(=O)C2)c1` (stereo unspecified), the Potency was “inactive”. With `O=C(CSc1nnc(CNc2ccc(F)cc2)n1Cc1ccccc1)NCc1ccccc1` the Potency was inconclusive: 4.65 µM [inhibitor, partial curve, poor fit]. In the case of `Nc1nc(/C=C/c2ccc(F)cc2)nc(-c2ccccc2O)n1`, the Potency was “inactive”. In the case of `COCCNC(=O)c1ccc(CS(=O)(=O)c2ccccc2C)o1`, the Potency was “inactive”. With `CC(=O)c1cccc(OCC(=O)N2CCCc3ccccc32)c1` the Potency was “inactive”. In the case of `CCN(CC)c1ccc(N/C(N)=N/c2nc(C(F)(F)F)cc(=O)[nH]2)cc1`, the Potency was “inactive”. For `COc1ccc(N2C(=O)NC(NC(=O)c3cccnc3)(C(F)(F)F)C2=O)cc1` (stereo unspecified), the Potency was inconclusive: 9.28 µM [inhibitor, partial curve]. For `O=C(COc1ccccc1Cl)Nc1ccc2oc(=O)ccc2c1`, the Potency was “inactive”. With `CCOC(=O)N1CCN(c2c(NCCCN(CC)Cc3ccccc3)c(=O)c2=O)CC1` the Potency was inconclusive: 0.0738 µM [inhibitor, full curve, poor fit]. For `Nc1nc(COC(=O)CCC(=O)c2ccccc2)nc(Nc2ccccc2)n1`, the Potency was inconclusive: 18.5 µM [inhibitor, single point]. In the case of `CN1CCN(C(=O)c2ccc(-c3ccccc3)cc2)CC1`, the Potency was “inactive”. For `COc1ccc(-c2csc(N3CCN(S(=O)(=O)c4ccc5c(c4)NC(=O)CO5)CC3)n2)cc1`, the Potency was active: 11.7 µM. In the case of `Cc1ccc(OCC(=O)NCCNC(=O)COc2ccc(C)cc2)cc1`, the Potency was inconclusive: 0.586 µM [inhibitor, full curve, poor fit]. With `CN(C(=O)C1CCC(=O)N(CCc2ccc(Cl)cc2)C1)C1CCOCC1` (stereo unspecified) the Potency was inconclusive: 5.22 µM [inhibitor, partial curve, poor fit]. For `CCOC(=O)c1ccccc1-n1c(C)cc(C2N=C(N)Nc3nc4ccccc4n32)c1C` (stereo unspecified), the Potency was active: 1.65 µM. With `CCCC(C(=O)NC1CCCC1)N(Cc1ccc(F)cc1)C(=O)c1snc(C(N)=O)c1N` (stereo unspecified) the Potency was inconclusive: 18.5 µM [inhibitor, single point]. For `Cc1cc(C(=O)COC(=O)c2cc(O)c3ccccc3c2O)c(C)n1CC1CCCO1` (stereo unspecified), the Potency was inconclusive: 18.5 µM [inhibitor, single point]. For `COc1cc(/C=C/C(=O)O)cc(S(=O)(=O)Nc2ccc3[nH]c(=O)[nH]c3c2)c1OC`, the Potency was “inactive”. For `COc1ccc(CNC(=O)CCNC(=O)c2ccc(C(C)(C)C)cc2)cc1OC`, the Potency was inconclusive: 7.38 µM [inhibitor, partial curve, poor fit]. In the case of `COc1ccccc1NC(=O)CSc1nnc(-c2ccc(NC(C)=O)cc2)n1C`, the Potency was inconclusive: 9.28 µM [inhibitor, single point]. In the case of `O=C(NCCc1ccccc1)C(=O)NCC1OCCN1S(=O)(=O)c1ccc2c(c1)OCCO2` (stereo unspecified), the Potency was inconclusive: 18.5 µM [inhibitor, single point]. In the case of `CCN(CC(=O)Nc1ccc(NC(C)=O)cc1)C(=O)CCCSc1nc2ccccc2[nH]1`, the Potency was “inactive”. In the case of `CCOC(=O)Cc1csc(SCC(=O)NC2CCCC(C)C2C)n1` (stereo unspecified), the Potency was inconclusive: 10.4 µM [inhibitor, single point]. For `CCN(Cc1cccs1)C(=O)CN1C(=O)NC(c2ccccc2)(c2ccccc2)C1=O`, the Potency was active: 13.1 µM. With `COc1ccccc1NC(=O)Cn1c(=O)oc2cc(S(=O)(=O)N3CCCC3)ccc21` the Potency was “inactive”. With `O=C(N/N=C/c1ccoc1)c1ccc(Br)cc1` the Potency was inconclusive: 10.4 µM [inhibitor, single point]. In the case of `COc1ccc(C(=O)N2CCC3(CC2)OCCO3)cc1`, the Potency was inconclusive: 0.465 µM [inhibitor, full curve]. In the case of `Cc1cc(-c2ccc(C)c(S(=O)(=O)Nc3ccc(S(N)(=O)=O)cc3)c2)on1`, the Potency was inconclusive: 4.65 µM [inhibitor, full curve, poor fit]. In the case of `Cc1cc(NC(=O)CCC(=O)N(CCC(C)C)C(C(=O)NCC2CCCO2)c2ccccc2C)no1` (stereo unspecified), the Potency was “inactive”. In the case of `CCC1(c2ccccc2)NC(=O)N(CC(=O)Nc2ccc(S(N)(=O)=O)cc2)C1=O` (stereo unspecified), the Potency was “inactive”. For `Fc1ccc(Sc2cc(Cl)c(-c3ccccc3)nn2)cc1`, the Potency was inconclusive: 9.28 µM [inhibitor, partial curve, poor fit]. In the case of `C=CCn1c(SCC(=O)N2CC(=O)Nc3ccccc32)nc2scc(-c3ccccc3)c2c1=O`, the Potency was active: 4.65 µM. For `O=C(CCN1CCN(CC(=O)Nc2ccccc2F)CC1)Nc1ccccc1F`, the Potency was inconclusive: 6.57 µM [inhibitor, partial curve, poor fit]. In the case of `COC(=O)c1cn(CCOc2ccccc2OC)c2ccccc12`, the Potency was “inactive”. In the case of `Cc1ccc(OCCOCCn2cnc3ccccc3c2=O)cc1C`, the Potency was “inactive”. In the case of `CCOc1ccc(C(=S)NC2CCCCC2)cc1OCC`, the Potency was inconclusive: 6.57 µM [inhibitor, single point]. With `Cc1ncc(C[n+]2csc(CCOC(=O)CC3C4CC5CC(C4)CC3C5)c2C)c(N)n1` (stereo unspecified) the Potency was inconclusive: 0.928 µM [inhibitor, partial curve, poor fit]. For `Cc1cc(C(F)(F)F)nc2c(Cl)c(C(C)(C)C)nn12`, the Potency was “inactive”. For `CCOC(=O)c1sc(NC(=O)c2ccc(OC)cc2)nc1C`, the Potency was inconclusive: 10.4 µM [inhibitor, partial curve, poor fit]. For `COc1ccc(C(=O)/C(=C\N(C)C)n2nc(C)cc2C)cc1`, the Potency was “inactive”. With `CCSc1nc2ccccc2n1C(=O)/C=C/c1ccc(OC)c(OC)c1` the Potency was “inactive”. With `Cc1ccc(NC(=O)c2nc[nH]c2C(=O)N(C)Cc2ccccc2)cc1` the Potency was inconclusive: 13.1 µM [inhibitor, single point]. With `N#C/C(=C\c1cn(CCOc2ccccc2)c2ccccc12)C(=O)NCC1CCCO1` (stereo unspecified) the Potency was inconclusive: 18.5 µM [inhibitor, single point]. With `O=C(COC(=O)c1cccc(S(=O)(=O)N2CCCC2)c1)Nc1ccccc1` the Potency was inconclusive: 16.5 µM [inhibitor, single point]. In the case of `Cc1cccc(-c2nc(NCCCN3CCOCC3)c3ccccc3n2)c1`, the Potency was active: 2.94 µM. With `CNC(=O)CN(c1cc(OCCOC)c(Cl)cc1Cl)S(=O)(=O)c1ccc(OC)cc1` the Potency was “inactive”. With `Cc1c(NC(=S)N2CCN(c3ccc(F)cc3)CC2)c(=O)n(-c2ccccc2)n1C` the Potency was inconclusive: 18.5 µM [inhibitor, single point].
